Results are given in words; binding and its absence hold for the method and conditions named. Some binding calls cover weakened binding; strength is not graded here.
What was measured:
[1] = molecular target: NF-κB p50 (rat (endogenous in primary hepatic stellate cells)) (UniProt Q63369); assay: native gel or EMSA; supershift: pre-assembled gel shift complexes of 8 μg nuclear extract of CCN2-treated rat HSC with 32P-labelled NF-κB oligonucleotide, incubated with 2 μg rabbit polyclonal anti-p65 and/or anti-p50 IgG for 2 h at 4°C, 8% polyacrylamide gel; the dimers are seen bound to DNA
[2] = molecular target: NF-κB p65 (rat (endogenous in primary hepatic stellate cells)) (UniProt Q7TQN4); assay: as above

Amino acid sequences for entries named in this document (tags omitted). Residues count along the entry.
UniProt Q63369, residues 1-483: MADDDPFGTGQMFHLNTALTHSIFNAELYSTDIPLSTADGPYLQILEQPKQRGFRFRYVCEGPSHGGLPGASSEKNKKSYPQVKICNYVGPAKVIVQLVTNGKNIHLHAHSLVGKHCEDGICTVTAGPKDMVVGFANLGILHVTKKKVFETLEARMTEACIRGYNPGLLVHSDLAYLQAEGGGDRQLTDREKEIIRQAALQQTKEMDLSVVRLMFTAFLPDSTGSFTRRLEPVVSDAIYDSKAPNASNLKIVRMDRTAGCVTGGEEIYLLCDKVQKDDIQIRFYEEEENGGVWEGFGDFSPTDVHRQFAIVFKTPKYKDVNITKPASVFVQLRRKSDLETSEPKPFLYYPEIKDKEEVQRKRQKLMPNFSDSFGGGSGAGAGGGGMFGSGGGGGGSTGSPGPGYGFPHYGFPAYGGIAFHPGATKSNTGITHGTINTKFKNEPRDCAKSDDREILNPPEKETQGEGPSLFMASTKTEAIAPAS
UniProt Q7TQN4: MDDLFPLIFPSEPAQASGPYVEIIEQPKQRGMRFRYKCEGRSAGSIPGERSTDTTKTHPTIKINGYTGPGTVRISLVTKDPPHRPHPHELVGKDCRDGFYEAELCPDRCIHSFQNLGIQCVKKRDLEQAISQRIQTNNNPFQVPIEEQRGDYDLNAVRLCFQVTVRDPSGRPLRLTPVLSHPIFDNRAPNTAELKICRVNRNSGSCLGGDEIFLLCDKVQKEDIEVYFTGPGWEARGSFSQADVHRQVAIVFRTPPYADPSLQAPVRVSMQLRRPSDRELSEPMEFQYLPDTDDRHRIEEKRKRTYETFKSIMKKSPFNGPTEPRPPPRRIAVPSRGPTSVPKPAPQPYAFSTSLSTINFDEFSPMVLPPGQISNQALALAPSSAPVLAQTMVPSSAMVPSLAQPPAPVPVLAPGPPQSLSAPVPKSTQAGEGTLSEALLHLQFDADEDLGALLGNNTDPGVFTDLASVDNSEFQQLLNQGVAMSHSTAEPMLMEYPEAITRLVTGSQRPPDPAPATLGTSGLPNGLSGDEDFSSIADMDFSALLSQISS

| binding [1] | binding [2] | Substance |
| --- | --- | --- |
| binds | binds | NF-κB p50 (from UniProt Q63369 1-483) |
|  | binds | NF-κB p65 (from UniProt Q7TQN4 1-550) |

Source: PMC1308830
